Assay results taken from the supplement of paper PMC10849652.
The list shows a part of the results.

Amino acid sequences for entries named in this document (tags omitted). A change or cut given only in a name is not applied to a line headed by its entry.
UniProt P09131: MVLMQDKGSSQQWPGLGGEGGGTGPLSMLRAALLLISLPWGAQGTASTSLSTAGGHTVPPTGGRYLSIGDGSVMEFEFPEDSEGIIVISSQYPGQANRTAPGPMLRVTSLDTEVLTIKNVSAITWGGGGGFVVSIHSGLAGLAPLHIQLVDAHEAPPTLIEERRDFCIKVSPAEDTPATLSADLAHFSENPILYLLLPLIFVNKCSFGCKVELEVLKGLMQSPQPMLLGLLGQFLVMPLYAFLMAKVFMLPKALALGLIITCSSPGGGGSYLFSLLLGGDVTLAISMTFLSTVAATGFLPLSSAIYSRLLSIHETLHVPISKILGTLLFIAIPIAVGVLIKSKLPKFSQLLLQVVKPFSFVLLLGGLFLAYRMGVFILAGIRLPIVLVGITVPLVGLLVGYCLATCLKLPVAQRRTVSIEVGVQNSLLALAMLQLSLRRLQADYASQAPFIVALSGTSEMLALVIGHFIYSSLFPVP
UniProt Q9NTG7: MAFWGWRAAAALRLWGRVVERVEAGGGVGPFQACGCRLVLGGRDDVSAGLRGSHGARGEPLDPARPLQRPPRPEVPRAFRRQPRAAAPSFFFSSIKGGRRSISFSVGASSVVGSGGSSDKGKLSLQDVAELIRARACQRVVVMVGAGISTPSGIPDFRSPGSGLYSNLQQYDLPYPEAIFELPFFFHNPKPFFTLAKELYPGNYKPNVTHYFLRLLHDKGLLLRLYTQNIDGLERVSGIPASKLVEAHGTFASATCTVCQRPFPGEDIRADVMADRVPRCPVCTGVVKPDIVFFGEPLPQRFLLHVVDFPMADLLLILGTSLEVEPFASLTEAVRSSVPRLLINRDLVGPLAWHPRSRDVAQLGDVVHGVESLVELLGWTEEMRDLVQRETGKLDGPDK
UniProt O75635: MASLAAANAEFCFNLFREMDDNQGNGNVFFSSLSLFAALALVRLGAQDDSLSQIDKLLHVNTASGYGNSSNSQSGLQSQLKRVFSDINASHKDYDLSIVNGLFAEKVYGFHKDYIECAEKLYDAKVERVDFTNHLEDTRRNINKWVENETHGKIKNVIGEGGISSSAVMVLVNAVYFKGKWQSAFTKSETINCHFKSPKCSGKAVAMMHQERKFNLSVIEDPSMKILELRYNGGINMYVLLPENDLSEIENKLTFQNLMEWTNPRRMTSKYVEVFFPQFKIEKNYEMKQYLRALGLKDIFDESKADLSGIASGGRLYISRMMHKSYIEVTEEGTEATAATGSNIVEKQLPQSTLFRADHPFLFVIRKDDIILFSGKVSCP
UniProt Q9UPS6, whole entry, looked up: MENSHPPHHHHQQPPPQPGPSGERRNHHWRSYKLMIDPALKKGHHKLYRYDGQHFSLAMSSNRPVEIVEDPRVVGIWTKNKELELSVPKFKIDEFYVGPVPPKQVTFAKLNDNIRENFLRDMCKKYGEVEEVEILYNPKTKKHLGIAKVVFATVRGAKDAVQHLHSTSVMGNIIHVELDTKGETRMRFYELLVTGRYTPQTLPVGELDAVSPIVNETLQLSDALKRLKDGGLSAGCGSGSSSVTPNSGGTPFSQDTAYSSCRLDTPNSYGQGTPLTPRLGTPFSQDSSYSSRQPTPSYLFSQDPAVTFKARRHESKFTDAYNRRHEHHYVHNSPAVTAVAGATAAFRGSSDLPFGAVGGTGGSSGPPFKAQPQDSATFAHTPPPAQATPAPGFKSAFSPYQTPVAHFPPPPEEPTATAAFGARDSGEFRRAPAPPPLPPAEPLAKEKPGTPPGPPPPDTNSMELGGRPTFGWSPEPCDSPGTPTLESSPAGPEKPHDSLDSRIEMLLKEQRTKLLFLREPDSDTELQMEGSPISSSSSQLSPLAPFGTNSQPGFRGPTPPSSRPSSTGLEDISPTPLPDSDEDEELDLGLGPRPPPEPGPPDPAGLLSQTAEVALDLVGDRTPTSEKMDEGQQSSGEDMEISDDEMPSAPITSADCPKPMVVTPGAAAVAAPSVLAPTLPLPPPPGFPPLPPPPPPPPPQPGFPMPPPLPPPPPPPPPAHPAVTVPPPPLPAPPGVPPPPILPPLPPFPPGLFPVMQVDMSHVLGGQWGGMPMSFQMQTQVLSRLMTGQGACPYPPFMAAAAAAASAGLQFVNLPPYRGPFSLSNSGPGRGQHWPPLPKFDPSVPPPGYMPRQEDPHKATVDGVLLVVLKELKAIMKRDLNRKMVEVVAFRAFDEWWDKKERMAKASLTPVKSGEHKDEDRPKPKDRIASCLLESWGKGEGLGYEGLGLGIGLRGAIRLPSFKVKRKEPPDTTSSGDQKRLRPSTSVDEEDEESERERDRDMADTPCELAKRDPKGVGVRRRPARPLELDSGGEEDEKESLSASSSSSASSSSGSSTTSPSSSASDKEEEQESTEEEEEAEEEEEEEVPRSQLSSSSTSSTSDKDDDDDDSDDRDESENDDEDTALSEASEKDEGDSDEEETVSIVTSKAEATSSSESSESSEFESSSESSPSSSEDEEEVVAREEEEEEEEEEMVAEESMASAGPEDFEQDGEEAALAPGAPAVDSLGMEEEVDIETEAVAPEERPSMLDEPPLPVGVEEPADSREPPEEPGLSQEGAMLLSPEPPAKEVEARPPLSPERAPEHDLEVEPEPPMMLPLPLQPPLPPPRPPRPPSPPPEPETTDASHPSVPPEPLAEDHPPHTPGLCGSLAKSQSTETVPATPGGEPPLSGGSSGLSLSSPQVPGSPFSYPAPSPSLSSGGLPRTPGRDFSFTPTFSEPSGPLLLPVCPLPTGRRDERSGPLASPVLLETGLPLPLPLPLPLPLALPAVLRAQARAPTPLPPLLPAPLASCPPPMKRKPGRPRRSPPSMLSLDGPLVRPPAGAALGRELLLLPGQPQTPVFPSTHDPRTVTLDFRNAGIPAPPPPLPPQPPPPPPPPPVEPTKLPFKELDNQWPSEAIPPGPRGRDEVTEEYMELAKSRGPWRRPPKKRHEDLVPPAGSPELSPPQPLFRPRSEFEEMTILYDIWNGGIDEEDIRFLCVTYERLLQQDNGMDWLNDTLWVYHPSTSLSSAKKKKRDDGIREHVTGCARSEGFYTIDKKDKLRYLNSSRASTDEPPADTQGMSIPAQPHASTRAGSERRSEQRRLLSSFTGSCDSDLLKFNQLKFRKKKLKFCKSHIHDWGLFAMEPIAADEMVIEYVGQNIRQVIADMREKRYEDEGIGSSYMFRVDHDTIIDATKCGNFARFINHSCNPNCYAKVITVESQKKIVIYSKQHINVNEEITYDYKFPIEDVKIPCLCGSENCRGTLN
UniProt P08697: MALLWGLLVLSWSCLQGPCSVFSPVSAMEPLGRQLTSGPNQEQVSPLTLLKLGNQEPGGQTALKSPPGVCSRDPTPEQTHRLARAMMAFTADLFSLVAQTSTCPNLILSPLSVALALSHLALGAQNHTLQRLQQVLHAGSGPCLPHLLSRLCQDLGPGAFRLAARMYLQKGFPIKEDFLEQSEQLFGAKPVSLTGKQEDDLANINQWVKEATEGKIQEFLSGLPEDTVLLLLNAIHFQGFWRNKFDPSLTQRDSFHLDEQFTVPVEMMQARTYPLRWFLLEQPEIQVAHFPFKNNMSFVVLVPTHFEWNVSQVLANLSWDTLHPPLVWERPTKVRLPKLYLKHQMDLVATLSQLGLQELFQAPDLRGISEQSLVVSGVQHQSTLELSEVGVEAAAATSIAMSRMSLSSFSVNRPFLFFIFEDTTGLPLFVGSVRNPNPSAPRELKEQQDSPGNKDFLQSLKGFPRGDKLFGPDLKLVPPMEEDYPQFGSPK
UniProt P01009, whole entry, looked up: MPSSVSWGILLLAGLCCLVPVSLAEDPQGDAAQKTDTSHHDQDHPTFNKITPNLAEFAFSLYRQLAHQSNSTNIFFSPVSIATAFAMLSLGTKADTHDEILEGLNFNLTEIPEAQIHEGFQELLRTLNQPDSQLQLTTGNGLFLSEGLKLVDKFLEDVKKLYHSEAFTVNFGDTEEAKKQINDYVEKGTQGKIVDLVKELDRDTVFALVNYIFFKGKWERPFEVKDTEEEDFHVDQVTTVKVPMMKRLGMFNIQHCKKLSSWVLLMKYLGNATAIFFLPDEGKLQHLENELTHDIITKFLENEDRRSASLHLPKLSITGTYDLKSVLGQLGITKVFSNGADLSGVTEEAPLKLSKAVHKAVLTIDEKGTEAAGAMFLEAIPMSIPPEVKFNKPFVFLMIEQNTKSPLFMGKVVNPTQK
UniProt Q9UQQ2: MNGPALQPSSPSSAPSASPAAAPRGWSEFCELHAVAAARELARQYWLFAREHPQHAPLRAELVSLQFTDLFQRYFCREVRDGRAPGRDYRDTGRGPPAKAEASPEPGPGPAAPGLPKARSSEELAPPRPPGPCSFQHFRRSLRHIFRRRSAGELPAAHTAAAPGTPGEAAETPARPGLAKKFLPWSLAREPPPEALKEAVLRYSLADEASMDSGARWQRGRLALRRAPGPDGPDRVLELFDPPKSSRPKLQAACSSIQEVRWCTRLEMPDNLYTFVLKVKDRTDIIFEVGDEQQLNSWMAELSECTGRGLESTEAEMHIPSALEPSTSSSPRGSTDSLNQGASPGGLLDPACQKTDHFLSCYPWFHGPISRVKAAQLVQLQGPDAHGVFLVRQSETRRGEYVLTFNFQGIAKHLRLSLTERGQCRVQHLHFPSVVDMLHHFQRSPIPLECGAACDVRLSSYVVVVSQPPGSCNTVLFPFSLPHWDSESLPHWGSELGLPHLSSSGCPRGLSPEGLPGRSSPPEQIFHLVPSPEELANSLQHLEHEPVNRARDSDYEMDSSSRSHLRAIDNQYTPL
UniProt Q9UIU6: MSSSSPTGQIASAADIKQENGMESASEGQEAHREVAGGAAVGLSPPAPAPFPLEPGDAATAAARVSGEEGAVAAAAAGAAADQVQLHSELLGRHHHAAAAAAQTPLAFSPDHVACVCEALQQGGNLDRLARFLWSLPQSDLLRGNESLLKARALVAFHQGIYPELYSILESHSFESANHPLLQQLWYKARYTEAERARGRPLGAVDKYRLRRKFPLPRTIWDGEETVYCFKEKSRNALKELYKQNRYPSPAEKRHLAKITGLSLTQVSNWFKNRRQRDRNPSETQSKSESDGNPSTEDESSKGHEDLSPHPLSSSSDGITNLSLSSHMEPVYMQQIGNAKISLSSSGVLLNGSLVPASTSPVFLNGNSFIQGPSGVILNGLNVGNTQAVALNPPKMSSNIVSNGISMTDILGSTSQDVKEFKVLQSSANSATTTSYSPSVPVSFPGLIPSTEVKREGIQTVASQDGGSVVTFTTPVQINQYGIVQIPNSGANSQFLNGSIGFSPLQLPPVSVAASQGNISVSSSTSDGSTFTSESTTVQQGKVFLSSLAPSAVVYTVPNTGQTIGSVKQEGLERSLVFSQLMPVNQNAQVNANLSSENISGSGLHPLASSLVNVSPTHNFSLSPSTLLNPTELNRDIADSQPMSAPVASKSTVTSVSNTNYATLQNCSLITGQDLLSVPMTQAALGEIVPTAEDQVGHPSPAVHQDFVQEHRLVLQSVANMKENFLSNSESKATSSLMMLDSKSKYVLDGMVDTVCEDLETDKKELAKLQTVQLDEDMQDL
UniProt P78314: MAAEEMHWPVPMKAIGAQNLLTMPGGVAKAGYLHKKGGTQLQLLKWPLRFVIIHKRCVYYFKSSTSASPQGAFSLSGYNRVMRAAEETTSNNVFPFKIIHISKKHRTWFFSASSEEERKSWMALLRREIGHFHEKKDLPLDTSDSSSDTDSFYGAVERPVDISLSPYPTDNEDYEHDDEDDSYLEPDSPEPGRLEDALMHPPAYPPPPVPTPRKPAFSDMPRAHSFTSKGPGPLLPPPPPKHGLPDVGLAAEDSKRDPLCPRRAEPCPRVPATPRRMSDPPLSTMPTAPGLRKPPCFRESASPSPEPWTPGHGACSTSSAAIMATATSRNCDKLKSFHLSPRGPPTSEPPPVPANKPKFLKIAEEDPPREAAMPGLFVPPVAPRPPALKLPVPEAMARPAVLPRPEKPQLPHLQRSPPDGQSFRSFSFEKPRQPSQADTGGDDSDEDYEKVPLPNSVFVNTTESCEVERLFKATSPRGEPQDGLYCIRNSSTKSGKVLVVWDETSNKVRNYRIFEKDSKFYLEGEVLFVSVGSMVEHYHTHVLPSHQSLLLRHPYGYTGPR
UniProt Q8IYI0: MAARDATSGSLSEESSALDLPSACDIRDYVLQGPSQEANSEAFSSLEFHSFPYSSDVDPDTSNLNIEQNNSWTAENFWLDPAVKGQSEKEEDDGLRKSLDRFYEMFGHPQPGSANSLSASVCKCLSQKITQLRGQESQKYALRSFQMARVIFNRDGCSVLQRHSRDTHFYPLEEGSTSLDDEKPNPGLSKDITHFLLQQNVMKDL
UniProt O43255: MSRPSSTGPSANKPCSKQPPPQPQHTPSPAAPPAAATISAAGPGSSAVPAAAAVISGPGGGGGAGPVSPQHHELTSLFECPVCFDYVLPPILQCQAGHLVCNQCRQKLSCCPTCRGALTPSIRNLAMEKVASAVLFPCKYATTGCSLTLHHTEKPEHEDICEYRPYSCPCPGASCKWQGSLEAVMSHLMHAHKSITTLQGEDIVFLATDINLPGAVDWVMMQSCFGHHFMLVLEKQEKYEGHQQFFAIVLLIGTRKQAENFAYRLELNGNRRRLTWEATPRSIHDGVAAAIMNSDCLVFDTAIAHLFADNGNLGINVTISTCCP

Tests used:
Test in all cases: log2 fold change, soluble protein after heating vs DMSO (PISA); higher = thermal stabilisation; K562 lysate, 10 uM; active = over 0.2 and 3.5 SD of the protein, either way, in both replicates (recomputed)
[1] = compound: Cn1cc(CNCC2CCN(c3ncc(C(=O)NO)cn3)CC2)c2ccccc21 [quisinostat]
Outline: (§1)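 To prepare the extract, K562 pellets were dounce-homogenised in PBS pH 7.4 with 1 mM MgCl2, giving crude material at 1 mg/mL protein. This was treated with 10 μM compound for 30 min, then heated in aliquots for 3 min over 48°C-58°C before pooling and addition of NP-40 to 0.5% at 4°C. Centrifugation at 21,000xg for 90 min left soluble protein in the supernatant, which TMTpro 16plex LC-MS/MS quantified with equalised channel sums. Results are log-two fold changes in thermal stability compared with solvent controls, from duplicates.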

[2] = compound: NC(=O)Nc1cc(-c2cccc(F)c2)sc1C(=O)N[C@H]1CCCNC1
Outline: as §1

[3] = compound: NC(=O)c1cnc(N[C@@H]2CCCC[C@@H]2N)nc1Nc1cccc(-n2nccn2)c1
Outline: as §1

[4] = compound: NC1(c2ccc(-c3nc4ccn5c(=O)[nH]nc5c4cc3-c3ccccc3)cc2)CCC1
Outline: as §1

[5] = compound: NCC(=O)Nc1ccc(-n2nc(C(F)(F)F)cc2-c2ccc3c(ccc4ccccc43)c2)cc1
Outline: as §1

[6] = compound: O=C(CCCCCCC(=O)Nc1ccccc1)NO [vorinostat]
Outline: as §1

[7] = compound: O=C(O)c1ccc2c(c1)nc(Nc1cccc(Cl)c1)c1ccncc12 [silmitasertib]
Outline: as §1

[8] = compound: O=C1NC(=O)C(c2cnc3ccccn23)=C1c1cn2c3c(cc(F)cc13)CN(C(=O)N1CCCCC1)CC2
Outline: as §1

[9] = compound: c1cn2cc(-c3ccc4cn[nH]c4c3)nc(Nc3ccc(N4CCOCC4)cc3)c2n1 [entospletinib]
Outline: as §1

[10] = compound: Cc1cn(-c2cc(NC(=O)c3ccc(C)c(Nc4nccc(-c5cccnc5)n4)c3)cc(C(F)(F)F)c2)cn1 [nilotinib]
Outline: as §1

[11] = compound: Cc1nc(Nc2n[nH]c3c2CN(C(=O)N[C@H](CN(C)C)c2ccccc2)C3(C)C)c2sccc2n1
Outline: as §1

[12] = compound: Cc1ncc(-c2ccnc(Nc3ccc(S(C)(=O)=O)cc3)n2)n1C(C)C
Outline: as §1

[13] = compound: Cn1cncc1[C@@](N)(c1ccc(Cl)cc1)c1ccc2c(c1)c(-c1cccc(Cl)c1)cc(=O)n2C [tipifarnib]
Outline: as §1

[14] = compound: Cc1nc(Nc2ncc(C(=O)Nc3c(C)cccc3Cl)s2)cc(N2CCN(CCO)CC2)n1 [dasatinib]
Outline: as §1

[15] = compound: Cn1cc(-c2ccc3c(c2)CCN3C(=O)Cc2cccc(C(F)(F)F)c2)c2c(N)ncnc21
Outline: as §1

Measured: log2 fold change

SLC22A18 (UniProt Q96BI1)
inactive: [1] -0.027 | [2] -0.032 | [3] 0.029 | [4] 0.007 | [5] -0.136 | [6] -0.044 | [7] 0.006 | [8] 0.004 | [9] 0.013

SERPINH1 (UniProt E9PK86)
inactive: [10] -0.277 | [11] -0.003 | [12] 0.119 | [13] 0.057

SLAIN2 (UniProt D6RIF6)
inactive: [1] 0.072 | [2] -0.043 | [8] -0.092

SLC12A6 isoform 2 (UniProt Q9UHW9)
inactive: [14] -0.072 | [15] 0.206 | [1] -0.011 | [2] -0.055 | [3] -0.043 | [4] 0.039 | [6] 0.17 | [7] -0.03 | [8] -0.064 | [9] -0.114

SKIL (UniProt P12757)
inactive: [4] -0.291 | [5] 0.069 | [6] -0.319 | [7] 0.051 | [9] 0.02

SLC10A3 (UniProt P09131)
inactive: [5] -0.177 | [9] -0.046

SIRT3 (UniProt Q9NTG7)
inactive: [14] 0.045 | [15] 0.084 | [1] -0.076 | [2] 0.01 | [3] -0.033 | [4] -0.053 | [5] 0.02 | [6] 0.083 | [7] 0.015 | [8] 0.049

SGK3 (UniProt Q96BR1)
inactive: [14] -0.291 | [15] 0.117 | [4] 0.112 | [5] 0.06 | [6] 0.04 | [7] 0.236

SLC15A4 (UniProt Q8N697)
inactive: [14] 0.052 | [15] -0.095 | [1] -0.164 | [2] -0.002 | [3] 0.045 | [4] 0 | [5] 0.102 | [6] 0.118 | [7] 0.084 | [8] -0.059 | [9] -0.001

SET isoform 3 (UniProt Q01105)
inactive: [14] -0.101 | [15] -0.071 | [9] -0.194

SERPINA7 (UniProt P05543)
inactive: [5] 0.075 | [9] -0.062

SERPINB7 (UniProt O75635)
inactive: [1] -0.505 | [2] 0.249 | [8] 0.437

SH2D1B (UniProt O14796)
inactive: [14] 0.066 | [15] -0.023 | [1] -0.095 | [2] -0.035 | [5] -0.007 | [8] -0.029 | [9] 0.032

SETD1B (UniProt Q9UPS6)
inactive: [14] -0.101 | [15] 0.166 | [1] 0.018 | [2] -0.057 | [5] 0.077 | [8] 0.057

SH2D3A (UniProt Q9BRG2)
inactive: [10] -0.042 | [11] 0.192 | [12] 0.063 | [13] 0.02

SERPINF2 (UniProt P08697)
inactive: [1] 0.324 | [2] -0.052 | [5] 0.103 | [8] 0.108 | [9] -0.048

SLC12A7 (UniProt Q9Y666)
inactive: [3] -0.162

SESN1 isoform 2 (UniProt Q9Y6P5)
inactive: [1] -0.18 | [2] 0.042 | [3] -0.047 | [4] -0.102 | [6] -0.38 | [7] -0.018 | [8] 0.067 | [9] -0.128

SIAE (UniProt Q9HAT2)
inactive: [1] 0.039 | [2] -0.008 | [8] -0.082 | [9] -0.012

SH3KBP1 (UniProt Q96B97)
inactive: [14] 0.075 | [15] -0.128 | [1] -0.047 | [2] 0.06 | [3] -0.093 | [4] -0.074 | [6] 0.005 | [7] -0.012 | [8] 0.123 | [9] -0.066

SERPINA1 (UniProt P01009)
inactive: [14] 0.107 | [15] 0.136

SLC11A1, A0A0A0MTL3
inactive: [10] -0.408 | [11] 0.122 | [12] -0.216 | [13] 0.154 | [3] -0.076

SESTD1 (UniProt Q86VW0)
inactive: [1] -0.061 | [2] 0.186 | [8] -0.109

SH2B3 (UniProt Q9UQQ2)
inactive: [1] 0.056 | [2] -0.127 | [4] 0.023 | [5] 0.067 | [6] -0.017 | [7] -0.104 | [8] 0.028 | [9] -0.111

SHB (UniProt Q15464)
inactive: [14] 0.05 | [15] 0.004 | [1] 0.072 | [2] -0.026 | [3] -0.02 | [4] -0.01 | [7] 0.117 | [8] 0.044
active: [6] -0.356

SIGIRR (UniProt Q6IA17)
inactive: [3] 0.311 | [5] 0.103 | [9] -0.006

Quoted at random: 2 records from the list, in no set order.
SET isoform 3 (UniProt Q01105)
inactive: [14] -0.101 | [15] -0.071 | [9] -0.194

SIAE (UniProt Q9HAT2)
inactive: [1] 0.039 | [2] -0.008 | [8] -0.082 | [9] -0.012

Later entries.

SF3B2 (UniProt E9PJ04)
inactive: [10] -0.04 | [11] 0.103 | [12] 0.091 | [13] 0.067 | [3] 0.085 | [4] -0.031 | [6] 0.269 | [7] 0.019

SFT2D1 (UniProt Q8WV19)
inactive: [14] 0.054 | [15] 0.31 | [1] 0.03 | [2] 0.153 | [8] -0.025

SHMT1 (UniProt J3KRZ5)
inactive: [10] -0.016 | [11] 0.074 | [12] 0.115 | [13] 0.048

SGO2 (UniProt Q562F6)
inactive: [1] -0.063 | [2] 0.02 | [8] 0.009 | [9] 0.01

SLC10A4 (UniProt Q96EP9)
inactive: [14] -0.057 | [15] -0.104 | [3] 0.088 | [4] -0.056 | [6] -0.29 | [7] 0.164

SKOR2 (UniProt Q2VWA4)
inactive: [14] -0.026 | [15] -0.017 | [1] -0.226 | [2] 0.064 | [3] 0.059 | [4] -0.062 | [5] 0.105 | [6] 0.184 | [7] 0.089 | [8] 0.182 | [9] -0.065

SIX4 (UniProt Q9UIU6)
inactive: [10] 0.015 | [11] 0.026 | [12] -0.016 | [13] -0.003 | [3] 0.055 | [4] -0.03 | [6] 0.038 | [7] 0.017 | [9] -0.054

SKIV2L (UniProt Q15477)
inactive: [5] -0.128

SH3BP2 isoform 4 (UniProt P78314)
inactive: [14] -0.027 | [15] -0.107 | [1] -0.111 | [2] 0.019 | [3] 0.141 | [4] 0.048 | [5] 0.08 | [6] -0.27 | [7] 0.092 | [8] -0.017

SHLD1 (UniProt Q8IYI0)
inactive: [14] -0.24 | [15] -0.001 | [9] -0.049

SF1 (UniProt H7C0N4)
inactive: [1] -0.06 | [2] -0.072 | [3] -0.078 | [5] 0.081 | [8] 0.114 | [9] 0.065

SIK2 (UniProt Q9H0K1)
inactive: [10] -0.148 | [11] 0.233 | [12] 0.176 | [13] -0.05 | [9] 0.097

SIAH2 (UniProt O43255)
inactive: [10] 0.02 | [11] 0.052 | [12] -0.053 | [13] 0.03 | [3] -0.202 | [4] -0.028 | [5] -0.172 | [6] -0.052 | [7] 0.052
